PMC10710042
These are yes or no findings as the source states them, for the method shown. Binding seen in cells or lysates may run through a third protein. Some entries that bind do so weakly or less than the wild type. Tags and fused reporters may be left off the sequences shown.

Target: Flag-RBM10 (UniProt P98175)
Experiment: co-IP; co-IP-WB of mutant and wild-type RBM10 (SI Appendix, Fig. S10); cells and tags not shown

B1: GFP-RBM10-I316F (protein, UniProt P98175 1-930)
chain: MEYERRGGRGDRTGRYGATDRSQDDGGENRSRDHDYRDMDYRSYPREYGSQEGKHDYDDSSEEQSAEDSYEASPGSETQRRRRRRHRHSPTGPPGFPRDGDYRDQDYRTEQGEEEEEEEDEEEEEKASNIVMLRMLPQAATEDDIRGQLQSHGVQAREVRLMRNKSSGQSRGFAFVEFSHLQDATRWMEANQHSLNILGQKVSMHYSDPKPKINEDWLCNKCGVQNFKRREKCFKCGVPKSEAEQKLPLGTRLDQQTLPLGGRELSQGLLPLPQPYQAQGVLASQALSQGSEPSSENANDTIILRNLNPHSTMDSFLGALAPYAVLSSSNVRVIKDKQTQLNRGFAFIQLSTIVEAAQLLQILQALHPPLTIDGKTINVEFAKGSKRDMASNEGSRISAASVASTAIAAAQWAISQASQGGEGTWATSEEPPVDYSYYQQDEGYGNSQGTESSLYAHGYLKGTKGPGITGTKGDPTGAGPEASLEPGADSVSMQAFSRAQPGAAPGIYQQSAEASSSQGTAANSQSYTIMSPAVLKSELQSPTHPSSALPPATSPTAQESYSQYPVPDVSTYQYDETSGYYYDPQTGLYYDPNSQYYYNAQSQQYLYWDGERRTYVPALEQSADGHKETGAPSKEGKEKKEKHKTKTAQQIAKDMERWARSLNKQKENFKNSFQPISSLRDDERRESATADAGYAILEKKGALAERQHTSMDLPKLASDDRPSPPRGLVAAYSGESDSEEEQERGGPEREEKLTDWQKLACLLCRRQFPSKEALIRHQQLSGLHKQNLEIHRRAHLSENELEALEKNDMEQMKYRDRAAERREKYGIPEPPEPKRRKYGGISTASVDFEQPTRDGLGSDNIGSRMLQAMGWKEGSGLGRKKQGIVTPIEAQTRVRGSGLGARGSSYGVTSTESYKETLHKTMVTRFNEAQ
- binding: binds
